About 610 (0.18%) of roughly 330,000 compounds were called active. Inconclusive means that the source gave no clear call. Such entries were picked first, then a sample of the others. Calls follow the shape of the full dose curve. A potency beside an inconclusive call is a rough fit, not a confirmed value.
Test: qHTS of Yeast-based Assay for SARS-CoV PLP; also: nearly all actives have a fitted effect of over 55% in size
Conditions: S. cerevisiae expressing SARS-CoV PLpro; Potency: growth rescue; series mostly up to 32.9 µM
Potency is read from the fitted curve at half-maximal effect.

Row | SMILES | Potency
1 | O=C(c1ccc(NC(=S)NCc2ccco2)cc1)N1CCCCC1 | inconclusive: 3.16 µM [activator, single point]
2 | CC(C)C[C@H]1CN=C(N(C)C)N1CCCCc1ccccc1 | active: 6.31 µM
3 | O=C(NC1CCCCC1)C(c1ccncc1)N(Cc1ccc(F)cc1)C(=O)c1ccccn1 (stereo not drawn) | inconclusive: 15.8 µM [activator, single point]
4 | Cc1cc(Cl)ccc1NNC(=O)CCc1ccccc1 | inactive
5 | CCOc1ccc(S(=O)(=O)N2CCN(Cc3ccco3)CC2)cc1 | inactive
6 | CCC(=O)Nc1nc2ccccc2n1Cc1ccccc1C | inconclusive: 22.4 µM [activator, single point]
7 | O=C(CCl)Nc1ccccc1Sc1ccc(Cl)cc1 | inconclusive: 7.94 µM [activator, partial curve]
8 | CCOC(=O)C1(Cc2cccc(Cl)c2)CCCN(C(=O)CCN2CCCC2=O)C1 (stereo not drawn) | inconclusive: 15.8 µM [activator, single point]
9 | Cn1cnc(S(=O)(=O)NCc2ccccc2)c1 | inconclusive: 12.6 µM [activator, partial curve]
10 | Cc1cc(CNC(=O)c2cc(Br)ccc2Cl)nn1C | inconclusive: 0.355 µM [activator, partial curve, poor fit]
11 | CCc1c(C)nc2cc(-c3ccc(Cl)cc3)[nH]n2c1=O | inactive
12 | COc1ccc(/C(N)=N/OC(=O)CSc2ccc(C)cc2)cc1OC | inactive
13 | CC(=O)c1ccc(NC(=S)N2CCCCCC2)cc1 | inactive
14 | Oc1ccc(CNC2CCCCC2)cc1 | inactive
15 | COc1ccc(N2C(=O)CC(S/C(N)=N/N=C/c3ccnc4ccccc34)C2=O)cc1 (stereo not drawn) | inconclusive: 22.4 µM [activator, partial curve, poor fit]
16 | CC(=O)c1ccc(C(=O)N2CCCC(N3CCN(c4ccc(F)cc4)CC3)C2)s1 (stereo not drawn) | inconclusive: 1 µM [activator, partial curve]
17 | CCC(=O)N1c2ccccc2NC2=C(C(=O)CC(c3ccco3)C2)C1c1ccco1 (stereo not drawn) | inconclusive: 14.1 µM [activator, single point]
18 | COc1cc(/C=N/NC(=O)COc2cc(C)cc(C)c2)ccc1OS(=O)(=O)c1ccc(C)cc1 | inactive
19 | COc1cccc(/C=N/NC(=O)CSc2ccccc2C)c1O | active: 22.4 µM
20 | Cc1ccc(NC(=O)CC2SC(=O)NC2=O)cc1 (stereo not drawn) | inconclusive: 10 µM [activator, single point]
21 | O=C(CCC(=O)c1ccc(Cl)cc1)OCC(=O)c1ccccc1 | inactive
22 | CCn1c(SCC(=O)N2CCCCCC2)nc2c([nH]c3ccccc32)c1=O | inconclusive: 15.8 µM [activator, single point]
23 | CCOc1ccccc1-c1c2cc(O)c(=O)cc-2oc2cc(O)c(O)cc12 | active: 11.2 µM
24 | Cc1ccc(NC(=O)[C@H](CC(C)C)NC(=O)[C@@H]2Cc3ccccc3CN2)cc1 | inactive

Row | SMILES | Potency
25 | S=c1[nH]nc(-c2ccccc2)n1Cc1ccccc1 | inconclusive: 10 µM [activator, partial curve, poor fit]
26 | CC(C)C(C(=O)Nc1nccs1)c1ccc(Cl)cc1 (stereo not drawn) | inactive
27 | CC1=Nc2cc(C(=O)O)ccc2Sc2ccc(Br)cc21 | inconclusive: 20 µM [activator, single point]
28 | COc1ccc2[nH]c(C(=O)N/N=C/c3ccc(O)cc3O)cc2c1 | inconclusive: 2.51 µM [activator, full curve]
29 | Cc1ccc(-c2onc3ccc(C4(C)OCCO4)cc23)cc1 | inconclusive: 3.98 µM [activator, single point]
30 | COc1ccccc1-c1cn[nH]c1-c1ccc(OCC(=O)NN)cc1O | inactive
31 | Clc1ccc(-c2cn(-c3ccc(Cl)cc3)c3[n+]2CCCCC3)cc1 | inactive
32 | O=C(Nc1ccccn1)C(NS(=O)(=O)c1cccc2nsnc12)c1ccccc1 (stereo not drawn) | inconclusive: 12.6 µM [activator, single point]
33 | CC(=O)Nc1cccc(NC(=O)c2ccc([N+](=O)[O-])cc2Cl)c1 | inactive
34 | Cc1nnc(NC(=O)c2ccccc2Br)s1 | inconclusive: 2.51 µM [activator, single point]
35 | O=S(=O)(NCCSc1ccccn1)c1ccc(Cl)cc1 | inconclusive: 5.62 µM [activator, partial curve]
36 | O=c1cc(-c2ccccc2)nc(N2CCCCC2)[nH]1 | inconclusive: 3.98 µM [activator, full curve]
37 | C/C(=N/NC(=O)Nc1ccccc1)c1ccc(C)cc1 | inconclusive: 4.47 µM [activator, partial curve]
38 | O=C(CCN1C(=O)S/C(=C\c2ccccc2)C1=O)NC1CCS(=O)(=O)C1 (stereo not drawn) | inconclusive: 20 µM [activator, single point]
39 | O=C(Nc1ccn(-c2ccccc2)n1)c1ccc(S(=O)(=O)N2CCCCCC2)cc1 | inactive
40 | O=C(CN1C(=O)c2cccc3cccc1c23)N1CCN(Cc2ccc3c(c2)OCO3)CC1 | inconclusive: 2.51 µM [activator, partial curve]
41 | Cc1ccc(NC2=NC(c3ccccc3)n3c(nc(C)cc3=O)N2)cc1 (stereo not drawn) | inconclusive: 20 µM [activator, single point]
42 | O=C(NCC(c1cccs1)N1CCOCC1)c1cc([N+](=O)[O-])ccc1Cl (stereo not drawn) | inconclusive: 11.2 µM [activator, single point]
43 | N#Cc1nc(-c2ccccc2F)oc1NCCc1ccccc1 | inactive
44 | O=C(OCCN1C(=O)c2cccc3c(N4CCOCC4)ccc(c23)C1=O)c1ccc(Cl)cc1 | inconclusive: 22.4 µM [activator, single point]
45 | CNS(=O)(=O)c1cccc(C(=O)OCC(=O)c2cc(C)n(CC3CCCO3)c2C)c1 (stereo not drawn) | inactive
46 | Cc1ccn2c(C(=O)NNC(=O)Nc3ccc(Cl)cc3)c(C)nc2c1 | inactive
47 | O=C(CCN1C(=O)[C@@H]2Cc3ccccc3CN2C1=O)N[C@@H](Cc1ccccc1)C(=O)O | active: 6.31 µM
48 | COCC(C)N1CCC(n2nccc2NC(=O)CCOc2ccccc2)CC1 (stereo not drawn) | inconclusive: 3.16 µM [activator, single point]

Two entries picked at random from those above:
Row | SMILES | Potency
4 | Cc1cc(Cl)ccc1NNC(=O)CCc1ccccc1 | inactive
10 | Cc1cc(CNC(=O)c2cc(Br)ccc2Cl)nn1C | inconclusive: 0.355 µM [activator, partial curve, poor fit]
